Experimental data from patent US20080108546A1.
These are yes or no findings as the source states them, for the method shown. In cells and extracts the contact can be indirect. Some results given as binding are weak or reduced against the parent protein; the word gives no strength. Sequences can lack the tags named with a protein. One block for each binder: values may come before it.

Chains of the proteins cited; added tags and fusions are not shown. Lines headed by an entry give the natural chain unless they say otherwise; changes in a name come on top.
UniProt P29466: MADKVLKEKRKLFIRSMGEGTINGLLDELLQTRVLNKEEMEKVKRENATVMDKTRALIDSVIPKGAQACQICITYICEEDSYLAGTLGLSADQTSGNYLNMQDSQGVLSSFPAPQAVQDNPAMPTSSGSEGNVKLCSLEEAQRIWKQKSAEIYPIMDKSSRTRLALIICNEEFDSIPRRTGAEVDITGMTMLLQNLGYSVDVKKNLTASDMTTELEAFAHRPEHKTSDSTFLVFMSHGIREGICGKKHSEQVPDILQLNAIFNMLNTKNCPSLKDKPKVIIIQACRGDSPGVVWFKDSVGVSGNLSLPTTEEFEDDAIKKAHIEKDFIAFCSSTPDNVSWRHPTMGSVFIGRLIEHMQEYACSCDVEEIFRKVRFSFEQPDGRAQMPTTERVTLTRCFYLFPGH

Key:
Assay in all cases: co-immunoprecipitation from 293T lysates, anti-Flag IP, anti-E immunoblot
[1] = molecular target: T1, E-epitope tagged INCA (human), Q5XLA6; conditions: remark: other sources report otherwise
T1 chain: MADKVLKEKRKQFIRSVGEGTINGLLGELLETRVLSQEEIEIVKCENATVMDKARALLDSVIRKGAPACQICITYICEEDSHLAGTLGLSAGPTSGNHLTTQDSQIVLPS

[2] = molecular target: T2, E-epitope tagged ICEBERG (human) (UniProt P57730)
T2 sequence (looked up): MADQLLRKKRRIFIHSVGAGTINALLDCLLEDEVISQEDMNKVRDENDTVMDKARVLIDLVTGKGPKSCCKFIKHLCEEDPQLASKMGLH

[3] = molecular target: E-epitope tagged human procaspase-1 C285A (enzymatically inactive mutant) (human) (UniProt P29466)
[4] = molecular target: T3, E-epitope tagged COP/Pseudo-ICE (human) (UniProt Q5EG05)
T3 sequence (looked up): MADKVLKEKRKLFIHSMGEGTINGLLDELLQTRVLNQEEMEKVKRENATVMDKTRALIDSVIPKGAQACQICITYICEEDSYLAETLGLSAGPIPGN

binding [1]: binds
B1: Flag-tagged INCA (Inhibitory CARD), Q5XLA6 1-110 (protein, not shown: small tags and cut ends)
chain: T1 chain

binding [2]: binds | binding [3]: binds | binding [4]: binds
B2: Flag-tagged INCA (Inhibitory CARD) (protein, not shown: small tags and cut ends)
chain: T1 chain
